Experimental data as given in publication PMC10290672.
No constants are given. Whether binding was seen depends on the method and setting. Binding seen in cells or lysates may run through a third protein. Some binding calls cover weakened binding; strength is not graded here. Sequences can lack the tags named with a protein.

Sequences of proteins named here, by UniProt entry; tags and fusion partners are left off.
UniProt Q9UM54: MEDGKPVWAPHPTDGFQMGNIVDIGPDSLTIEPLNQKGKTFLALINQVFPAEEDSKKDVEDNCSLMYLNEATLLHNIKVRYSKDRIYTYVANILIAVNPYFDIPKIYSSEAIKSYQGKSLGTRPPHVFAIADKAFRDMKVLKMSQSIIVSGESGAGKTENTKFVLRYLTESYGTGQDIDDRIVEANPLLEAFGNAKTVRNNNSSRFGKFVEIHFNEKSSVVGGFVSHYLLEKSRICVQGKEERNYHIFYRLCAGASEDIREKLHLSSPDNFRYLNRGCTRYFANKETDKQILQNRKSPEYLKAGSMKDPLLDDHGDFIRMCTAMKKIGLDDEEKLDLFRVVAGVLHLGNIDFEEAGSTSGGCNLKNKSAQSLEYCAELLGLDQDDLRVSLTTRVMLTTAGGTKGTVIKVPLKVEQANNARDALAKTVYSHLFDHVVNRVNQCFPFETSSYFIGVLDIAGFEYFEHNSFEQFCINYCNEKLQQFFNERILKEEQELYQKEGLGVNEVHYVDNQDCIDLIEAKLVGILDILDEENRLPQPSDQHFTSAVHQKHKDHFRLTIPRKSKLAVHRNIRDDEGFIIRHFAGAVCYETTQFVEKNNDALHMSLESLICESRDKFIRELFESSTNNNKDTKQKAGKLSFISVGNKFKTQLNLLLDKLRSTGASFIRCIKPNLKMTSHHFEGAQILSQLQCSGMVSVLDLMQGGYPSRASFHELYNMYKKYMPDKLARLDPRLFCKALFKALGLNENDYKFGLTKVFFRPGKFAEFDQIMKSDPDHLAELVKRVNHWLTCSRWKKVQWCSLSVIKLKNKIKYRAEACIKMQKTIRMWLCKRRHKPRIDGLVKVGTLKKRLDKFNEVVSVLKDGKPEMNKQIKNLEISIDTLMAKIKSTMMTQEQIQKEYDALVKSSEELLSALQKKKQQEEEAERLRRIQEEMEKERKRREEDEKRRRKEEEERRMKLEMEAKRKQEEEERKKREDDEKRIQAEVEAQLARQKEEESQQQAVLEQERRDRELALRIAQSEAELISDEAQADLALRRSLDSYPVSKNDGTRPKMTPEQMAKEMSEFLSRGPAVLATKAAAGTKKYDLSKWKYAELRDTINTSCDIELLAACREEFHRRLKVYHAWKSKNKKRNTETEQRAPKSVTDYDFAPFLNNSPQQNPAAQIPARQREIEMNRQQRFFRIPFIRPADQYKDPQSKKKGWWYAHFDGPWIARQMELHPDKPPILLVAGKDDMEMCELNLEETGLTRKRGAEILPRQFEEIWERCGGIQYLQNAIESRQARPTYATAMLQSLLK

Biological target: T1, GFP-WRNIP1 (UniProt Q96S55)
T1 sequence: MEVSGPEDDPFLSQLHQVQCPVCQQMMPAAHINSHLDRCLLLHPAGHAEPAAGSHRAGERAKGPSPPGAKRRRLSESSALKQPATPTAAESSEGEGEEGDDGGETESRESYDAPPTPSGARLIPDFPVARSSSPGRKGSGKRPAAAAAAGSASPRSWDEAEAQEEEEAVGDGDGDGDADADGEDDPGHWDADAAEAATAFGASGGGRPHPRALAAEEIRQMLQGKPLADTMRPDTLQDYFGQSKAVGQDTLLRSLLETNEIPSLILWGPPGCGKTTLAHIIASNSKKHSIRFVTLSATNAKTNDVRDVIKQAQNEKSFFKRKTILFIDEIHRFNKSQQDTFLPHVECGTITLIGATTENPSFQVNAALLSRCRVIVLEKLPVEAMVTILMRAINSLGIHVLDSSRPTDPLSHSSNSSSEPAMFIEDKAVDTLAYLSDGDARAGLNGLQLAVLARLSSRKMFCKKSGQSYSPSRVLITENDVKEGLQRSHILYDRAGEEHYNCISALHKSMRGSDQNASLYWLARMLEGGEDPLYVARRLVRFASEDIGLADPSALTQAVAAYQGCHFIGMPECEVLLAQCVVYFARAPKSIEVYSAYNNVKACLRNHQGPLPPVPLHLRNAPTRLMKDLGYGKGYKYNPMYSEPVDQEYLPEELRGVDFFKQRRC
Assay: co-IP; HEK293T transfected with GFP-tagged proteins for 24 h, lysis in JS buffer with Benzonase, GFP-trap magnetic agarose beads 1 h at 4 °C, western blotting

myosin VI, endogenous in HEK293T (from UniProt Q9UM54 1-1294)
binding: binds
